# No constants are given. Whether binding was seen depends on the method and setting. In cells and extracts the contact can be indirect. Binding can be weak; no strength is given.
# Protein sequences, listed by entry. Tags and fused reporters are not part of them. Lines headed by an entry give the natural chain unless they say otherwise; changes in a name come on top.
# UniProt P25090: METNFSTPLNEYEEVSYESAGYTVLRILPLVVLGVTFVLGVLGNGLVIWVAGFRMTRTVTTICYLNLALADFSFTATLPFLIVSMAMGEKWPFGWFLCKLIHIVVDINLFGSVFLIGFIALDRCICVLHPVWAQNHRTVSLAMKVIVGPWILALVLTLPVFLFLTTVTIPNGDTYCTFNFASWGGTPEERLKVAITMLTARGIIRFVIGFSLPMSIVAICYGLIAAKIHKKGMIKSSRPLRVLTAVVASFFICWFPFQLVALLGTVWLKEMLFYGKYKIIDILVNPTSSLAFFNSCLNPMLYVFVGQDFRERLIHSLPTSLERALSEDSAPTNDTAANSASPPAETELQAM
# UniProt P32121: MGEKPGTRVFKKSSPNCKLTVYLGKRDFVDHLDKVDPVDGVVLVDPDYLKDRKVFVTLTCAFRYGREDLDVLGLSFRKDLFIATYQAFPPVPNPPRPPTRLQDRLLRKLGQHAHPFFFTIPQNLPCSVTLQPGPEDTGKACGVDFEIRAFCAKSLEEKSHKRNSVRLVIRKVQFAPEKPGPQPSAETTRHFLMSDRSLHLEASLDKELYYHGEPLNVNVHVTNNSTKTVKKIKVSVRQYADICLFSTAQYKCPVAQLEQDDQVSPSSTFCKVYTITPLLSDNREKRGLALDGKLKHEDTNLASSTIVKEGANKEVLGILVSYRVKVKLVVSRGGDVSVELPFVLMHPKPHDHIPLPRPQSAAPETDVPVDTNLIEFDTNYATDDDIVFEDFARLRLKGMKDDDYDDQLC
# Molecular target: FPR2-Rluc8 (human) (UniProt P25090)
# Experiment: FRET or BRET; HEK293 cells transiently transfected with FPR2-Rluc8 (donor) and mGsi-Venus or β-arrestin 2-YFP (acceptor); 37 °C, HBSS, coelenterazine H 5 μM; stimulated with increasing concentrations of WKYMVm or analogs; acceptor:donor ratio less that of untreated cells
substance,measurement,value
β-arrestin 2-YFP (from UniProt P32121 1-409),binding,binds

# — publication PMC12631002, “Bioactivity Profiles of Progressively Ring‐Fluorinated Cyclohexyl Motifs in the WKYMVm Peptide as Formylpeptide FPR2 Agonists and in Keto‐Piperazines as Antitrypanosome Agents” (Chembiochem, 2025)
